The series in a line: Fluorimetric analyses for auto-fluorescence. As to conditions: concentrations up to 30 µM; excitation 360 and 485 nm.

Here are results for 2 compounds from paper PMC8826350, “Structural feature-driven pattern analysis for multitarget modulator landscapes” (Bioinformatics, 2021).

Molecules are shown by their SMILES.

For the compound `Cc1onc(-c2ccccc2Cl)c1C(=O)N1CCN(Cc2nnnn2-c2ccc(F)cc2)CC1` [Compound 3], the auto-fluorescence result is given as “Neither compound 3 nor compound 5 showed auto-fluorescence”.
Regarding `COc1ccc(OCc2noc(CN3CCN(C(=O)C45CC6CC(CC(C6)C4)C5)CC3)n2)cc1` [Compound 5], the auto-fluorescence result is recorded as “Neither compound 3 nor compound 5 showed auto-fluorescence”.
